Results taken from the supplement of paper PMC4604168 (melanoma cell lines).
The list shows a part of the results. Repeats are few or missing, and single values can be far off.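 Imaging used 1,536-well plates; nuclei positive for cleaved PARP by antibody were divided by total DNA-stained nuclei to yield the apoptosis fraction. Doses for screening kept most cells viable, and cell lines differ markedly in resting and induced cleaved-PARP levels.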

How the values were obtained:
Experiment in all cases: cleaved PARP positive nuclei fraction relative to DMSO control; melanoma cells; higher = more apoptosis
Settings in all cases: library dose: low library concentration; 72 h
501Mel = tested on: 501Mel
A101D = tested on: A101D
A2058 = tested on: A2058
A375 = tested on: A375
C32 = tested on: C32
CBRC008 = tested on: CBRC008 (line from a melanoma biopsy)
CBRC014 = tested on: CBRC014 (line from a melanoma biopsy)
CBRC016 = tested on: CBRC016 (line from a melanoma biopsy)
CBRC017 = tested on: CBRC017 (line from a melanoma biopsy)
CBRC034 = tested on: CBRC034 (line from a melanoma biopsy)
COLO792 = tested on: COLO792
COLO800 = tested on: COLO800
COLO829 = tested on: COLO829
G361 = tested on: G361
IPC-298 = tested on: IPC-298
IST-MEL1 = tested on: IST-MEL1
LB2518-MEL = tested on: LB2518-MEL
LOXIMVI = tested on: LOXIMVI
MEL-HO = tested on: MEL-HO

SMILES | cleaved PARP positive nuclei fraction (501Mel) | cleaved PARP positive nuclei fraction (A101D) | cleaved PARP positive nuclei fraction (A2058) | cleaved PARP positive nuclei fraction (A375) | cleaved PARP positive nuclei fraction (C32) | cleaved PARP positive nuclei fraction (CBRC008) | cleaved PARP positive nuclei fraction (CBRC014) | cleaved PARP positive nuclei fraction (CBRC016) | cleaved PARP positive nuclei fraction (CBRC017) | cleaved PARP positive nuclei fraction (CBRC034) | cleaved PARP positive nuclei fraction (COLO792) | cleaved PARP positive nuclei fraction (COLO800) | cleaved PARP positive nuclei fraction (COLO829) | cleaved PARP positive nuclei fraction (G361) | cleaved PARP positive nuclei fraction (IPC-298) | cleaved PARP positive nuclei fraction (IST-MEL1) | cleaved PARP positive nuclei fraction (LB2518-MEL) | cleaved PARP positive nuclei fraction (LOXIMVI) | cleaved PARP positive nuclei fraction (MEL-HO)
C=C(c1ccc(C(=O)O)cc1)c1cc2c(cc1C)C(C)(C)CCC2(C)C [Bexarotene] + COc1ccc(Cl)c(Nc2nc3ccccc3nc2NS(=O)(=O)c2cccc(NC(=O)C(C)(C)N)c2)c1 [XL147] (first compound 2 µM, partner dose 0.8 µM) | 58.2% | 121% | 107% | 46% | 132% | 121% | 456% | 167% | 180% | 112% | 43.1% | 195% | 123% | 101% | 42.5% | 64.9% | 195% | 21.2% | 89.4%
CC(C)C[C@H](NC(=O)[C@H](Cc1ccccc1)NC(=O)c1cnccn1)B(O)O [Bortezomib] + Cc1nc(Nc2ncc(C(=O)Nc3c(C)cccc3Cl)s2)cc(N2CCN(CCO)CC2)n1 [dasatanib] (first compound 0.001 µM, partner dose 0.004 µM) | 447% | 817% | 72.9% | 74.7% | 333% | 271% | 246% | 182% | 301% | 527% | 137% | 124% | 292% | 3180% | 174% | 77.6% | 340% | 89.1% | 76.8%
Cc1cc(Nc2cc(N3CCN(C)CC3)nc(/C=C/c3ccccc3)n2)n[nH]1 + Nc1ncn([C@H]2C[C@H](O)[C@@H](CO)O2)c(=O)n1 [decitabine] (first compound 0.04 µM, partner dose 0.1 µM) | 102% | 67.2% | 143% | 115% | 72.6% | 62.3% | 108% | 154% | 122% | 77.4% | 107% | 124% | 165% | 28% | 66.4% | 80.7% | 128% | 154% | 79.2%
CC(C)C[C@H](NC(=O)[C@H](Cc1ccccc1)NC(=O)c1cnccn1)B(O)O [Bortezomib] + CO[C@H]1C[C@@H]2CC[C@@H](C)[C@@](O)(O2)C(=O)C(=O)N2CCCC[C@H]2C(=O)O[C@H]([C@H](C)C[C@@H]2CC[C@@H](OCCO)[C@H](OC)C2)CC(=O)[C@H](C)/C=C(\C)[C@@H](O)[C@@H](OC)C(=O)[C@H](C)C[C@H](C)/C=C/C=C/C=C/1C [everolimus] (first compound 0.001 µM, partner dose 0.02 µM) | 2240% | 535% | 133% | 555% | 163% | 988% | 240% | 558% | 401% | 423% | 147% | 177% | 220% | 2710% | 172% | 456% | 258% | 196% | 155%
CN1CCN(c2ccc3nc(-c4c(N)c5c(F)cccc5[nH]c4=O)[nH]c3c2)CC1 [Dovitinib] + C=CCNC1=C2C[C@@H](C)C[C@H](OC)[C@H](O)[C@@H](C)/C=C(\C)[C@H](OC(N)=O)[C@@H](OC)/C=C\C=C(/C)C(=O)NC(=CC1=O)C2=O [Tanespimycin] (first compound 0.1 µM, partner dose 0.002 µM) | 640% | 176% | 51% | 189% | 208% | 171% | 181% | 43.2% | 96.4% | 31.5% | 80.7% | 86.9% | 95.2% | 110% | 179% | 65.9% | 130% | 28.8% | 105%
Cn1c(=O)n(-c2ccc(C(C)(C)C#N)cc2)c2c3cc(-c4cnc5ccccc5c4)ccc3ncc21 + C=CCNC1=C2C[C@@H](C)C[C@H](OC)[C@H](O)[C@@H](C)/C=C(\C)[C@H](OC(N)=O)[C@@H](OC)/C=C\C=C(/C)C(=O)NC(=CC1=O)C2=O [Tanespimycin] (first compound 0.004 µM, partner dose 0.002 µM) | 68% | 54.9% | 35.1% | 105% | 86.4% | 119% | 81% | 38.7% | 98.5% | 96.4% | 32.1% | 112% | 83.4% | 78% | 83.9% | 139% | 122% | 136% | 83.6%
CC(C)C[C@H](NC(=O)[C@H](Cc1ccccc1)NC(=O)c1cnccn1)B(O)O [Bortezomib] + C=CCNC1=C2C[C@@H](C)C[C@H](OC)[C@H](O)[C@@H](C)/C=C(\C)[C@H](OC(N)=O)[C@@H](OC)/C=C\C=C(/C)C(=O)NC(=CC1=O)C2=O [Tanespimycin] (first compound 0.001 µM, partner dose 0.002 µM) | 407% | 430% | 119% | 91.5% | 161% | 2590% | 254% | 445% | 242% | 879% | 71.4% | 77.9% | 254% | 3500% | 124% | 107% | 737% | 46.8% | 98.3%
Nc1nc(F)nc2c1ncn2[C@@H]1O[C@H](CO)[C@@H](O)[C@@H]1O [fludarabine] + Nc1cccc2c1CN(C1CCC(=O)NC1=O)C2=O [lenalidomide] (first compound 0.2 µM, partner dose 1 µM) | 5780% | 81.2% | 87.4% | 6830% | 90.6% | 147% | 96.5% | 42.9% | 81.8% | 126% | 104% | 73.6% | 70.5% | 132% | 89.9% | 138% | 93.1% | 112% | 168%
CN1CCN(c2ccc3nc(-c4c(N)c5c(F)cccc5[nH]c4=O)[nH]c3c2)CC1 [Dovitinib] + O=C(O)[C@@H]1[O][Sb](=[O])([O][Sb]2(=[O])[O][C@H]([C@H](O)CO)[C@H](O)[C@H](C(=O)O)[O]2)[O][C@H]([C@H](O)CO)[C@@H]1O [stibogluconate] (first compound 0.1 µM, partner dose 2 µM) | 125% | 271% | 103% | 81.9% | 150% | 98.4% | 96.4% | 75.8% | 92% | 58.1% | 49.1% | 90.9% | 150% | 54.3% | 52% | 60.2% | 202% | 10.7% | 120%
Cn1c(=O)n(-c2ccc(C(C)(C)C#N)cc2)c2c3cc(-c4cnc5ccccc5c4)ccc3ncc21 + CS(=O)(=O)CCNCc1ccc(-c2ccc3ncnc(Nc4ccc(OCc5cccc(F)c5)c(Cl)c4)c3c2)o1 [lapatinib] (first compound 0.004 µM, partner dose 0.8 µM) | 78.8% | 59.2% | 71.7% | 224% | 92.6% | 108% | 109% | 24.4% | 88.6% | 117% | 228% | 77.8% | 119% | 224% | 44.7% | 133% | 154% | 139% | 120%
Nc1ccn([C@@H]2O[C@H](CO)[C@@H](O)C2(F)F)c(=O)n1 [gemcitabine] + Nc1nc(F)nc2c1ncn2[C@@H]1O[C@H](CO)[C@@H](O)[C@@H]1O [fludarabine] (first compound 0.0004 µM, partner dose 0.2 µM) | 12500% | 114% | 241% | 4580% | 90.2% | 31.7% | 194% | 336% | 174% | 122% | 100% | 130% | 95.3% | 110% | 153% | 66.9% | 102% | 92.3% | 114%
C[C@@H](Oc1cc(-c2cnn(C3CCNCC3)c2)cnc1N)c1c(Cl)ccc(F)c1Cl [Crizotinib] + CO[C@H]1C[C@@H]2CC[C@@H](C)[C@@](O)(O2)C(=O)C(=O)N2CCCC[C@H]2C(=O)O[C@H]([C@H](C)C[C@@H]2CC[C@@H](OCCO)[C@H](OC)C2)CC(=O)[C@H](C)/C=C(\C)[C@@H](O)[C@@H](OC)C(=O)[C@H](C)C[C@H](C)/C=C/C=C/C=C/1C [everolimus] (first compound 0.2 µM, partner dose 0.02 µM) | 391% | 56.8% | 128% | 356% | 204% | 104% | 87.8% | 134% | 119% | 71.8% | 218% | 80% | 108% | 207% | 234% | 118% | 409% | 67.7% | 174%
Nc1ncn([C@H]2C[C@H](O)[C@@H](CO)O2)c(=O)n1 [decitabine] + COc1ccc(Cl)c(Nc2nc3ccccc3nc2NS(=O)(=O)c2cccc(NC(=O)C(C)(C)N)c2)c1 [XL147] (first compound 0.1 µM, partner dose 0.8 µM) | 64.6% | 100% | 310% | 310% | 79.8% | 374% | 120% | 351% | 205% | 126% | 91.6% | 73.8% | 51.3% | 75.1% | 141% | 128% | 132% | 69.3% | 129%
C=C(c1ccc(C(=O)O)cc1)c1cc2c(cc1C)C(C)(C)CCC2(C)C [Bexarotene] + Cc1nc(Nc2ncc(C(=O)Nc3c(C)cccc3Cl)s2)cc(N2CCN(CCO)CC2)n1 [dasatanib] (first compound 2 µM, partner dose 0.004 µM) | 71.6% | 87.6% | 42.7% | 128% | 80.3% | 96.4% | 112% | 189% | 146% | 696% | 101% | 59% | 131% | 115% | 82.6% | 67.5% | 90.3% | 158% | 199%
C=C(c1ccc(C(=O)O)cc1)c1cc2c(cc1C)C(C)(C)CCC2(C)C [Bexarotene] + OCc1c[nH]c2ccccc12 [Indole-3-carbinol] (first compound 2 µM, partner dose 0.8 µM) | 140% | 96.9% | 130% | 59.1% | 65.7% | 52.3% | 104% | 172% | 163% | 33.7% | 183% | 81.4% | 116% | 106% | 40.7% | 426% | 106% | 110% | 121%
CC(C)C[C@H](NC(=O)[C@H](Cc1ccccc1)NC(=O)c1cnccn1)B(O)O [Bortezomib] + Nc1ncn([C@H]2C[C@H](O)[C@@H](CO)O2)c(=O)n1 [decitabine] (first compound 0.001 µM, partner dose 0.1 µM) | 12100% | 536% | 66.9% | 92.6% | 90.5% | 1360% | 492% | 969% | 658% | 381% | 62.7% | 96.2% | 186% | 2820% | 231% | 101% | 1370% | 190% | 225%
